The target of the test is T1, bicaudal D homolog 1 (human (endogenous in UCB-MSCs)) (UniProt Q96G01).
T1 sequence: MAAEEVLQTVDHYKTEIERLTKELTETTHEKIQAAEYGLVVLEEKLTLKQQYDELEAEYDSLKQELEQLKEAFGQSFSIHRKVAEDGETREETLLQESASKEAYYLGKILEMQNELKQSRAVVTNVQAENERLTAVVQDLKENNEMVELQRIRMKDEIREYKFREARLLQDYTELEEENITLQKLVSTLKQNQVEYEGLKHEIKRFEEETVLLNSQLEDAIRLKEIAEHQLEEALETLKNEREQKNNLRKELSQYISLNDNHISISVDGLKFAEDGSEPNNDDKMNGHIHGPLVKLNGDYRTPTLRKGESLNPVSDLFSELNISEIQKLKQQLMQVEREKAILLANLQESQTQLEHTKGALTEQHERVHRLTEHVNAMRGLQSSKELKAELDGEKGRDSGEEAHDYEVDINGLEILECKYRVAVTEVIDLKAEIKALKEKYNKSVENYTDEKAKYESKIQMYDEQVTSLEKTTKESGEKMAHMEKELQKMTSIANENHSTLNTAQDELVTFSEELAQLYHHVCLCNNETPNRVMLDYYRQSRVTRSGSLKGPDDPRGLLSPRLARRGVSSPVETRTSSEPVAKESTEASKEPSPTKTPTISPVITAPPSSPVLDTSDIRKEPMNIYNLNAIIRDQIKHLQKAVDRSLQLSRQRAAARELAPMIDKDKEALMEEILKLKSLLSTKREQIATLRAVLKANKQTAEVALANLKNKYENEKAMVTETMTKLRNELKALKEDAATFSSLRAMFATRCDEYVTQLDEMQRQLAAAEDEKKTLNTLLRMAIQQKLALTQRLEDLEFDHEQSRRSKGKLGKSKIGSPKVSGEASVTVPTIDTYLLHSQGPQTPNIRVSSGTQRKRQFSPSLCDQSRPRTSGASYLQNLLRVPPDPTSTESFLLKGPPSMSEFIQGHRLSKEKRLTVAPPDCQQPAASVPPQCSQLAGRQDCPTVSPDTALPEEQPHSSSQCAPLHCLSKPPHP
Nature of the test: co-IP; UCB-MSC lysate (20 mM Tris-HCl pH 8.0, 137 mM NaCl, 1% Nonidet P-40, 2 mM EDTA) incubated 6 h at 4°C with BICD1 or rabbit IgG antibodies on protein G magnetic beads; blotted for HIF1α and Dynein IC; cells with or without cycloheximide (10 μM) pretreatment and cP1P (1 μM) for 24 h.

Results are given in words; binding and its absence hold for the method and conditions named. In cells and extracts the contact can be indirect. A result given as binding can be weak or reduced; the word gives no strength.

Regarding “dynein intermediate chain (human (endogenous in UCB-MSCs))”, the binding entry was “binds”.

The record behind these values is publication PMC6683124.
